Source: patent US20060148703A1

Target: T1, self-assembling peptide nanofibers (peptide sequence AcN-…-CNH2)
T1 sequence (peptide, N-terminal acetyl and C-terminal amide, printed as AcN-...-CNH2): RARADADARARADADA
Assay: 100 ng protein embedded in NFs, incubated in PBS 3 h at 37 C, Bradford assay of the supernatant

binding	Substance
binds	angiopoietin-1 (R&D Systems) (ligand)
binds	bFGF (R&D Systems) (ligand)

Results are given in words; binding and its absence hold for the method and conditions named. Binding can be weak; no strength is given.
